No constants are given. Whether binding was seen depends on the method and setting. Binding seen in cells or lysates may run through a third protein. Some results given as binding are weak or reduced against the parent protein; the word gives no strength.
Biological target: Yin-Yang 1 (human (endogenous in HeLa)) (UniProt P25490)
Experiment: co-IP; endogenous YY1 immunoprecipitated with anti-YY1 (C-20) from whole cell extracts of HeLa cells released 8 h after double-thymidine block (G2/M); IgG as control; blot probed with anti-Plk1, then anti-YY1

Protein sequences, listed by entry. Tags and fused reporters are not part of them.
UniProt P25490: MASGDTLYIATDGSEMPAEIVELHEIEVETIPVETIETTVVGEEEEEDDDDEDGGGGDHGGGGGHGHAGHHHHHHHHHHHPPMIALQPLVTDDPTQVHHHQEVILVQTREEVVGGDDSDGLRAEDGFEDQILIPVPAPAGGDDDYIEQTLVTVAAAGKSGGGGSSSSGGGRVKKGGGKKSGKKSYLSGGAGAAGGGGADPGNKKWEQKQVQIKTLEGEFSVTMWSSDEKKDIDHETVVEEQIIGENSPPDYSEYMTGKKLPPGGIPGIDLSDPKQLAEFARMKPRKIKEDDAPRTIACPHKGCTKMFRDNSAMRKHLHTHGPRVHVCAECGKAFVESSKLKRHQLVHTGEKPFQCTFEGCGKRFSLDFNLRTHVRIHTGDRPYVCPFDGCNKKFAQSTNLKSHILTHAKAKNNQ
UniProt P53350: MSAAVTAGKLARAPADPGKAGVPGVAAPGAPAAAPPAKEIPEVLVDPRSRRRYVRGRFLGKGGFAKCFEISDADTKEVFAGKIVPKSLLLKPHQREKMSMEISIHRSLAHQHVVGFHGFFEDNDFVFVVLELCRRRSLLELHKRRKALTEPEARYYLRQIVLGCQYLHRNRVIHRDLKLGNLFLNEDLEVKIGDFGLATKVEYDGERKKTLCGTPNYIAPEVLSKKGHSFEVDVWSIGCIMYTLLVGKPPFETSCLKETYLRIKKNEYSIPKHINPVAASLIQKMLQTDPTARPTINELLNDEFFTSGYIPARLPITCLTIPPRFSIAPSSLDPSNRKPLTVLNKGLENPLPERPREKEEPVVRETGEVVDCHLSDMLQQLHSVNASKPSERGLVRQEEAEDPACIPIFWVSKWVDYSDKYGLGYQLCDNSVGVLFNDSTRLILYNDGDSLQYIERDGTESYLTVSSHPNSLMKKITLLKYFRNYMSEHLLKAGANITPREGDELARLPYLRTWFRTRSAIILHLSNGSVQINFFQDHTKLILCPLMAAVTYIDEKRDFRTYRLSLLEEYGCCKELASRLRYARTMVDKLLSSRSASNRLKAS

binding: binds
Substance: Polo-like kinase 1 (from UniProt P53350 1-603) (enzyme)
